# Screening data

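Vaccinia-infected cells with a two-color viral stage reporter; Venus fluorescence read on a plate reader; the cell line is not named here; timing not stated here.
The test concentration is not given here.
Percent change in Venus reporter signal; lower (more negative) values mean stronger inhibition of that viral stage.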

Values are in %.
How 0% and 100% were set is not given here.
Common to all entries: measured here: Venus reporter, other viral stage.
Part of the compounds only, not a random draw; the main read-out is not listed here.

| structure | activity change (Venus) (%) |
|---|---|
| `C[C@@H]1CN([C@H](C)CO)C(=O)Cc2cc(NC(=O)C3CCCCC3)ccc2O[C@@H]1CN(C)C(=O)Nc1ccccc1` | 0.9754 |
| `Cc1ccc(S(=O)(=O)N[C@H]2C=C[C@H](CC(=O)N3CCC(Cc4ccccc4)CC3)O[C@H]2CO)cc1` | -30.11 |
| `CC(C)CC#Cc1ccc2c(c1)O[C@H](CN(C)Cc1ccc(F)cc1)[C@H](C)CN([C@H](C)CO)S2(=O)=O` | -71.18 |
| `C[C@@H]1CN([C@H](C)CO)S(=O)(=O)c2ccc(C#Cc3ccncc3)cc2O[C@@H]1CN(C)S(=O)(=O)c1ccccc1` | -47.49 |
| `COc1ccccc1C#Cc1cnc2c(c1)C(=O)N([C@H](C)CO)C[C@H](C)[C@@H](CN(C)C(=O)c1ccc3c(c1)OCO3)O2` | -40.05 |
| `CN1C(=O)c2cc(NC(=O)c3ccc(F)cc3)ccc2OC[C@@H]2O[C@H](CC(=O)NCC3CCCCC3)CC[C@@H]21` | -38.73 |
| `C[C@H]1CCCCO[C@@H](CN(C)C(=O)Nc2ccc(C(F)(F)F)cc2)[C@@H](C)CN([C@@H](C)CO)C(=O)c2cc(NC(=O)c3ccncc3)ccc2O1` | -21.91 |
| `COc1ccc(S(=O)(=O)Nc2ccc3c(c2)CC(=O)N([C@@H](C)CO)C[C@@H](C)[C@@H](CN(C)Cc2ccc(Cl)c(Cl)c2)O3)cc1` | -57.2 |
| `C[C@H](CO)N1C[C@H](C)[C@H](CN(C)Cc2ccc(Cl)c(Cl)c2)Oc2ccc(NS(=O)(=O)c3ccc(Cl)cc3)cc2CC1=O` | -45.51 |
| `CC(C)CC#Cc1ccc([C@H]2[C@@H](CO)N3C(=O)CN(C(=O)NC4CCCCC4)C[C@@H]23)cc1` | -26.06 |
| `COc1ccc(CN(C)C[C@H]2Oc3ccc(NC(=O)Nc4ccc(C(F)(F)F)cc4)cc3CC(=O)N([C@H](C)CO)C[C@H]2C)cc1` | -47.03 |
| `COc1ccc2c3c(n(C)c2c1)[C@@H](CO)N(C(=O)c1cccc(F)c1)CC31CN(C(=O)c2cccc(F)c2)C1` | -35.09 |
| `CCCC#Cc1ccc([C@@H]2[C@H](CO)N3CCCCN(S(=O)(=O)c4ccccc4C)C[C@@H]23)cc1` | -54.83 |
| `COCC#Cc1ccc2c(c1)O[C@H](CN(C)Cc1ccc3c(c1)OCO3)[C@@H](C)CN([C@@H](C)CO)S2(=O)=O` | -35.03 |
| `C/C=C/c1ccc2c(c1)O[C@H](CN(C)Cc1ccccc1F)[C@H](C)CN([C@@H](C)CO)S2(=O)=O` | -37.37 |
| `COc1ccc(S(=O)(=O)Nc2ccc3c(c2)C(=O)N([C@@H](C)CO)C[C@@H](C)[C@@H](CN(C)Cc2ccc(Oc4ccccc4)cc2)O3)cc1` | -66.45 |
| `COc1cccc(C#Cc2ccc([C@@H]3[C@@H](CO)N4C(=O)CN(C(=O)Cc5ccccc5)C[C@@H]34)cc2)c1` | -22.64 |
| `N#Cc1cccc(-c2ccc3c(c2)[C@H]2[C@H](CCN2C(=O)C2CCCCC2)[C@@H](CO)N3)c1` | -42.29 |
| `Cc1ccc(-c2ccc3c(c2)O[C@@H](CN(C)C(=O)Nc2ccccc2)[C@@H](C)CN([C@@H](C)CO)S3(=O)=O)cc1` | -37.67 |
| `C[C@H]1CN([C@@H](C)CO)C(=O)c2cc(C#CCC3CCCC3)cnc2O[C@@H]1CN(C)Cc1ccccn1` | -36.56 |
| `O=C(NC1CCCC1)N1CC(=O)N2[C@H](C1)[C@@H](c1ccc(-c3ccc(F)cc3)cc1)[C@@H]2CO` | -29.85 |
| `C[C@@H]1CCCCO[C@H](CN(C)S(=O)(=O)c2ccccc2)[C@H](C)CN([C@H](C)CO)C(=O)c2cc(NC(=O)Cc3ccccc3)ccc2O1` | -42.36 |
| `O=C(C1CCCCC1)N1C[C@H]2[C@@H](c3ccccc31)[C@@H](CO)N2Cc1ccccc1Cl` | -33.85 |
| `O=C(Nc1ccccc1)N1CCCCN2[C@@H](CO)[C@@H](c3ccc(C#CC4CC4)cc3)[C@@H]2C1` | -71.26 |
| `C[C@H](CO)N1C[C@H](C)[C@H](CN(C)C(=O)Nc2ccccc2)OCCCC[C@H](C)Oc2ccc(NS(=O)(=O)c3ccc(Cl)cc3)cc2C1=O` | -34.66 |
| `Cc1ccc(S(=O)(=O)N(C)C[C@@H]2Oc3c(NC(=O)NC(C)C)cccc3C(=O)N([C@H](C)CO)C[C@@H]2C)cc1` | -43.7 |
| `C/C=C/c1ccc2c(c1)O[C@H](CN(C)C(=O)Nc1cccc(F)c1)[C@@H](C)CN([C@@H](C)CO)S2(=O)=O` | -28.3 |
| `C[C@@H]1CN([C@@H](C)CO)S(=O)(=O)c2ccc(C#Cc3ccccc3)cc2O[C@@H]1CN(C)S(=O)(=O)c1ccccc1F` | -39.66 |
| `C[C@H]1CN([C@@H](C)CO)S(=O)(=O)c2ccc(C#CC3CC3)cc2O[C@H]1CN(C)Cc1ccccc1` | -30.34 |
| `C[C@H]1CCCCO[C@H](CN(C)S(=O)(=O)c2ccccc2)[C@@H](C)CN([C@@H](C)CO)C(=O)c2cc(NS(=O)(=O)c3ccc(F)cc3)ccc2O1` | -23.08 |
| `CC(C)C#Cc1ccc2c(c1)O[C@H](CN(C)C(=O)c1cccc(F)c1)[C@@H](C)CN([C@@H](C)CO)S2(=O)=O` | -43.67 |
| `CN(C[C@H]1N[C@@H](CO)[C@H]1c1ccc(-c2ccc(F)cc2)cc1)C(=O)C1CCC1` | -40 |
| `COCC(=O)N(C)C[C@H]1Oc2cc(C#CCC3CCCC3)ccc2S(=O)(=O)N([C@@H](C)CO)C[C@H]1C` | -71.47 |
| `CN(C)C(=O)c1ccc(-c2cccc(-c3nc(C(=O)NC4CCCCC4)cc4c3[C@H](CCO)N([S@@](=O)C(C)(C)C)C4)c2)cc1` | -14.04 |
| `COc1ccc(CN(C)C[C@H]2OCCCC[C@@H](C)Oc3ccc(NC(=O)Nc4ccc(OC)cc4)cc3C(=O)N([C@@H](C)CO)C[C@@H]2C)cc1` | -59.72 |
| `COc1ccc2c3c([nH]c2c1)[C@H](CO)N(C(=O)NC(C)C)CC31CCN(Cc2ccc(F)cc2)CC1` | -31.48 |
| `COc1ccc2c3c(n(C)c2c1)[C@@H](CO)N(C(=O)C1CCC1)CC31CCN(Cc2cccc(F)c2)CC1` | -46.81 |
| `COc1ccccc1NC(=O)N1CCCCN2[C@@H](CO)[C@@H](c3ccc(-c4cccc(C#N)c4)cc3)[C@@H]2C1` | -67.03 |
| `COc1ccc(CN(C)C[C@@H]2OCCCC[C@@H](C)Oc3ccc(NC(=O)Nc4ccc(C(F)(F)F)cc4)cc3C(=O)N([C@H](C)CO)C[C@H]2C)cc1` | -56.33 |
| `Cc1ccccc1S(=O)(=O)N(C)C[C@H]1OCc2ccccc2-c2c(n(C)c3ccccc23)C(=O)N([C@@H](C)CO)C[C@@H]1C` | -58.37 |
| `C[C@@H]1CN([C@@H](C)CO)S(=O)(=O)c2ccc(-c3ccc(C#N)cc3)cc2O[C@H]1CN(C)Cc1ccccn1` | -57.88 |
| `C[C@@H]1CN([C@H](C)CO)C(=O)Cc2cc(NC(=O)CCCCCC(=O)Nc3ccccc3N)ccc2O[C@@H]1CN(C)Cc1ccc(Oc2ccccc2)cc1` | -25.71 |
| `C[C@H]1CN([C@@H](C)CO)S(=O)(=O)c2ccc(C#Cc3ccccc3)cc2O[C@H]1CN(C)C(=O)C1CC1` | -36.54 |
| `Cc1ccccc1S(=O)(=O)N1CC[C@H]2[C@H](CO)Nc3ccc(C#Cc4ccccc4)cc3[C@H]21` | -28.3 |
| `C[C@@H]1CN([C@H](C)CO)S(=O)(=O)c2ccc(-c3ccccc3)cc2O[C@H]1CN(C)Cc1ccncc1` | -37.17 |
| `C[C@H](CO)N1C[C@H](C)[C@H](CN(C)C(=O)NC2CCCCC2)Oc2c(NC(=O)Nc3ccc(C(F)(F)F)cc3)cccc2C1=O` | -30.23 |
| `C[C@@H]1CN([C@H](C)CO)C(=O)c2cc(NS(=O)(=O)c3ccc(Cl)cc3)ccc2O[C@@H]1CN(C)Cc1ccc(Oc2ccccc2)cc1` | -58.72 |
| `N#Cc1ccc(-c2ccc([C@@H]3[C@@H](CO)N4C(=O)CN(C(=O)C5CCC5)C[C@@H]34)cc2)cc1` | -34.59 |
| `O=C(C[C@@H]1CC[C@@H]2[C@H](COC[C@H](O)CN2S(=O)(=O)c2ccc(Oc3ccccc3)cc2)O1)Nc1ccccc1` | -52.83 |
| `C[C@H]1CN([C@@H](C)CO)C(=O)c2cc(/C=C/c3ccccc3)cnc2O[C@H]1CN(C)C(=O)c1cccc(F)c1` | -30.96 |
| `CN1C(=O)c2cc(NC(=O)c3ccc(F)c(F)c3)ccc2OC[C@@H]2O[C@H](CC(=O)N[C@@H]3CCN(Cc4ccccc4)C3)CC[C@H]21` | -26.32 |
| `C[C@H]1CN([C@@H](C)CO)C(=O)c2cccc(NC(=O)c3nc4ccccc4s3)c2O[C@@H]1CN(C)Cc1ccc(C(F)(F)F)cc1` | -34.26 |
| `COc1ccc(S(=O)(=O)N2C[C@@H](O)COC[C@@H]3O[C@@H](CC(=O)N[C@@H]4CCN(Cc5ccccc5)C4)CC[C@H]32)cc1` | -23.3 |

The first 3 entries again:

structure	activity change (Venus) (%)
C[C@@H]1CN([C@H](C)CO)C(=O)Cc2cc(NC(=O)C3CCCCC3)ccc2O[C@@H]1CN(C)C(=O)Nc1ccccc1	0.9754
Cc1ccc(S(=O)(=O)N[C@H]2C=C[C@H](CC(=O)N3CCC(Cc4ccccc4)CC3)O[C@H]2CO)cc1	-30.11
CC(C)CC#Cc1ccc2c(c1)O[C@H](CN(C)Cc1ccc(F)cc1)[C@H](C)CN([C@H](C)CO)S2(=O)=O	-71.18

Data taken from PubChem BioAssay AID1053133, deposited by Broad Institute (2014).